Measured values from article PMC6717914.
Results are given in words; binding and its absence hold for the method and conditions named. Binding seen in cells or lysates may run through a third protein. Some results given as binding are weak or reduced against the parent protein; the word gives no strength. Where a sequence is shown, tags or fusion partners need not be part of it.

By UniProt entry, the sequences of proteins in these tests, tags left out.
UniProt P49597: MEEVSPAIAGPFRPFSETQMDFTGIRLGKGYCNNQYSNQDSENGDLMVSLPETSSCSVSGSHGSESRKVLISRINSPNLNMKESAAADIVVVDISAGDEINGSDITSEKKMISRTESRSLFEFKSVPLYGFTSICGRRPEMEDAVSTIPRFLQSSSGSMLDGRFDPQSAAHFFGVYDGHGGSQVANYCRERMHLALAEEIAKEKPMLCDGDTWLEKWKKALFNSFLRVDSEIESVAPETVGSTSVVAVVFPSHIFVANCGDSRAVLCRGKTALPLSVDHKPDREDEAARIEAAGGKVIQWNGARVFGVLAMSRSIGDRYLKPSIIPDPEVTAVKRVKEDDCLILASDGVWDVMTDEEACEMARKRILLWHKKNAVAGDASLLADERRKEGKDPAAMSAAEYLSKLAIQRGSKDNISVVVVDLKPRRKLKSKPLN

Target: ABI1 tagged by mCherry fluorophore (Arabidopsis) (UniProt P49597)
Experiment: FRET or BRET; FRET-FLIM as competition: GFP:SnRK2 and mCherry:ABI1 with co-expressed RCAR1 or RCAR14 in N. benthamiana leaves, without or with exogenous ABA sprayed 2 h before microscopy (up to 0.1 mM)

B1: SnRK2.4 as GFP fusion protein (enzyme, UniProt P43291 1-363)
chain: MDKYELVKDIGAGNFGVARLMKVKNSKELVAMKYIERGPKIDENVAREIINHRSLRHPNIIRFKEVVLTPTHLAIAMEYAAGGELFERICSAGRFSEDEARYFFQQLISGVSYCHAMQICHRDLKLENTLLDGSPAPRLKICDFGYSKSSLLHSRPKSTVGTPAYIAPEVLSRREYDGKMADVWSCGVTLYVMLVGAYPFEDQEDPKNFRKTIQKIMAVQYKIPDYVHISQDCKNLLSRIFVANSLKRITIAEIKKHSWFLKNLPRELTETAQAAYFKKENPTFSLQTVEEIMKIVADAKTPPPVSRSIGGFGWGGNGDADGKEEDAEDVEEEEEEVEEEEDDEDEYDKTVKEVHASGEVRIS
- binding: binds

B2: RCAR1 (receptor, UniProt Q84MC7 1-187)
chain: MMDGVEGGTAMYGGLETVQYVRTHHQHLCRENQCTSALVKHIKAPLHLVWSLVRRFDQPQKYKPFVSRCTVIGDPEIGSLREVNVKSGLPATTSTERLELLDDEEHILGIKIIGGDHRLKNYSSILTVHPEIIEGRAGTMVIESFVVDVPQGNTKDETCYFVEALIRCNLKSLADVSERLASQDITQ
- binding: binds
